Experimental data: PubChem BioAssay AID1053208 (Peter MacCallum Cancer Centre, 2014)

- Screen: 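Genes whose silencing cuts survival of bone tumour cells only with doxorubicin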 (primary screen)
- Cells: mouse osteosarcoma cells, early-passage culture from an engineered mouse model of fibroblastic bone tumour
- Knock-down reagent: siRNA pool against mouse genes, 40 nM
- Timing: about 120 h (48 h before drug, then 72 h with drug)
- Conditions: doxorubicin 100 nM for 72 h, roughly 30-40% inhibitory dose
- Measured: 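Luminescent ATP signal taken as viability with or without 100 nM doxorubicin for 72 h; mean of two wells set against non-targeting siRNA and turned into robust z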
- Direction: viability z-score with doxorubicin: higher = more viable cells under doxorubicin; viability z-score without drug: higher = more viable cells with knock-down alone
- Hit rule: 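Called active if knock-down leaves viability unchanged without drug (z within -2 to 2) but lowers it with doxorubicin (z at or under -2)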
This is one part, drawn at random, of about 17,000 reagents tested. In the full data, 788 (4.7%) are marked active. 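Calls rest on z-score classes alone; an extra cut-off of viability at most 70% of control was not applied to them.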 Unmarked entries are inactive. Further read-outs or replicates are left out here.

What did the screen give for Jmjd6?
combined z-score class: no change with or without drug; viability z-score with doxorubicin: 1.46; viability z-score without drug: 1.18

For Or56b2, how do the results read?
combined z-score class: no change with or without drug; viability z-score with doxorubicin: 0; viability z-score without drug: -1.01

For Inhbc, what does the deposit list?
combined z-score class: no change with or without drug; viability z-score with doxorubicin: 0.34; viability z-score without drug: 1.52

What did the screen give for Ctdp1?
combined z-score class: no change with or without drug; viability z-score with doxorubicin: 0.11; viability z-score without drug: -0.34

How did the screen score Nostrin?
combined z-score class: no change with or without drug; viability z-score with doxorubicin: -0.22; viability z-score without drug: 0.51

With Rcor1, what does the deposit list?
combined z-score class: no change with or without drug; viability z-score with doxorubicin: 0.11; viability z-score without drug: 0.84

For Pycr3, how do the results read?
combined z-score class: low cell count with doxorubicin only (active); viability z-score with doxorubicin: -2.02; viability z-score without drug: 0.17

How did the screen score Gabre?
combined z-score class: no change with or without drug; viability z-score with doxorubicin: 1.12; viability z-score without drug: 0.84

How did the screen score Foxp3?
combined z-score class: high cell count with doxorubicin only; viability z-score with doxorubicin: 2.25; viability z-score without drug: -0.51

For D130060J02Rik, what was measured?
combined z-score class: no change with or without drug; viability z-score with doxorubicin: -0.9; viability z-score without drug: 0.84

With Neu1, what was measured?
combined z-score class: no change with or without drug; viability z-score with doxorubicin: 0.67; viability z-score without drug: 0.34

With Nrn1, how do the results read?
combined z-score class: no change with or without drug; viability z-score with doxorubicin: 0.45; viability z-score without drug: 0.84

Called active, among the entries above:
Pycr3 → combined z-score class: low cell count with doxorubicin only (active); viability z-score with doxorubicin: -2.02; viability z-score without drug: 0.17
